Results published in paper PMC12006517.
Results are given in words; binding and its absence hold for the method and conditions named. Binding seen in cells or lysates may run through a third protein. A yes stands for co-enrichment or nearness to the bait. Other partners may have been found.

Amino acid sequences for entries named in this document (tags omitted).
UniProt Q93008: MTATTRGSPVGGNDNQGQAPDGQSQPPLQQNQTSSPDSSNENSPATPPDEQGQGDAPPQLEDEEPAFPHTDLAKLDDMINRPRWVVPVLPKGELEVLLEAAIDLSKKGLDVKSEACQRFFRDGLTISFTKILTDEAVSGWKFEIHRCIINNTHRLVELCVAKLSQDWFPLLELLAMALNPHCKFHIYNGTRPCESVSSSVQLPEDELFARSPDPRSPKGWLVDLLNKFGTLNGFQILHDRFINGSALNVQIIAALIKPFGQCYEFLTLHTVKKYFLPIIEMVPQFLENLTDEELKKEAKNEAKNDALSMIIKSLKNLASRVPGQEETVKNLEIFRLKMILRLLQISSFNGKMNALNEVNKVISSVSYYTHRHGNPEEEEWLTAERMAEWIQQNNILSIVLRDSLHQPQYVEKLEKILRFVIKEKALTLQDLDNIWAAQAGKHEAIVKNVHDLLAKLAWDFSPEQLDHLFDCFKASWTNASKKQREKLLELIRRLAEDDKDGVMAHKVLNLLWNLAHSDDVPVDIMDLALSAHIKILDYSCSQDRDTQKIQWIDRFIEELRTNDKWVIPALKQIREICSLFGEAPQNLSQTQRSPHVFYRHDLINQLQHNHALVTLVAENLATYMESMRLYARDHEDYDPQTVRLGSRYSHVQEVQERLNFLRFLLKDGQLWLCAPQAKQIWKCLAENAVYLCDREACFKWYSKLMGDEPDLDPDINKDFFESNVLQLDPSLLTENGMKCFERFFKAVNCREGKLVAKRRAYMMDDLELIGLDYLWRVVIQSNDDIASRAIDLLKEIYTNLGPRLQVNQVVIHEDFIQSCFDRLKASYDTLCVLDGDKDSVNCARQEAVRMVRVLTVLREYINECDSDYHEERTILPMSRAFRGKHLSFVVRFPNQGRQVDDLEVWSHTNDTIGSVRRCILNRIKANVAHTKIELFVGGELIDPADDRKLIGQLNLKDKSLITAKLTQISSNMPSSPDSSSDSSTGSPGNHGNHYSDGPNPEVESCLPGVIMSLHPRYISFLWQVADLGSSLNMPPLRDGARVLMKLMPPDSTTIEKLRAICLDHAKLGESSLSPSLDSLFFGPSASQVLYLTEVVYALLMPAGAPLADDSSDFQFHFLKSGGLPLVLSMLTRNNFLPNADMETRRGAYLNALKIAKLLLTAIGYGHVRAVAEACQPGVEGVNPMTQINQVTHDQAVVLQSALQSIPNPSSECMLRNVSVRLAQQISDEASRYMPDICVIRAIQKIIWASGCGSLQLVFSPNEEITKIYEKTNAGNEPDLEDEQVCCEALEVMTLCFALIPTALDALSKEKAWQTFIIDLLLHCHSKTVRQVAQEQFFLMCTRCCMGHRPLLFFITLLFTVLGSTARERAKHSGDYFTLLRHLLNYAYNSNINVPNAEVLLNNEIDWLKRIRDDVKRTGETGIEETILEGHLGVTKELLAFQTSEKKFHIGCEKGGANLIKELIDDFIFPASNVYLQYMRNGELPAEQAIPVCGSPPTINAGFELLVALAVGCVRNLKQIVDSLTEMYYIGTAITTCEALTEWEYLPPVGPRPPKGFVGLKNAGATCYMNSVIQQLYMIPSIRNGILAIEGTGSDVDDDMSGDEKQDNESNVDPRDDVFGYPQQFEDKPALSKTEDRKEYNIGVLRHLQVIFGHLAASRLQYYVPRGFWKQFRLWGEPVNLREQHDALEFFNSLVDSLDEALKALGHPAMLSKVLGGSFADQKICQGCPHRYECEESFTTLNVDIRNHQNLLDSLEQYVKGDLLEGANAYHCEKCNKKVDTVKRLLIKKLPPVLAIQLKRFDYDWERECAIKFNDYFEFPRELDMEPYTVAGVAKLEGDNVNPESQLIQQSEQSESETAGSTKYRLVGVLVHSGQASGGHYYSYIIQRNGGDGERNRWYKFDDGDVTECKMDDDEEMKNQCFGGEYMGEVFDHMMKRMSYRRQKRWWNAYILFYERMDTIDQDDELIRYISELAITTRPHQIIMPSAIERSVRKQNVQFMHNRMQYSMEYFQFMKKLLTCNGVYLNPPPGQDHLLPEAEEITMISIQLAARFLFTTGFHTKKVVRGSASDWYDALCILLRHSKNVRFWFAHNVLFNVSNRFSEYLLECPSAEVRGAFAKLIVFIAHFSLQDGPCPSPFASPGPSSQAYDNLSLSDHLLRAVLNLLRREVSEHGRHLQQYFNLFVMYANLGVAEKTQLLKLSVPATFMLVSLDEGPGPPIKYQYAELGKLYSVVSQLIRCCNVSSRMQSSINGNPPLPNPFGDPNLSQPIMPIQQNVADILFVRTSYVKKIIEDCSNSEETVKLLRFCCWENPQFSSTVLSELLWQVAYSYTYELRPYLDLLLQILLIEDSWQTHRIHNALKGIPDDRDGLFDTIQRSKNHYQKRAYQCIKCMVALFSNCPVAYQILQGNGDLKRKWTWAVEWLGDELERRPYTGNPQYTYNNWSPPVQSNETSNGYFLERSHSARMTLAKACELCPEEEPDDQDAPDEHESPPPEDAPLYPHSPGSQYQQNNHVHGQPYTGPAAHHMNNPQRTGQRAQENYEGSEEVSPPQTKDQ
UniProt Q99814: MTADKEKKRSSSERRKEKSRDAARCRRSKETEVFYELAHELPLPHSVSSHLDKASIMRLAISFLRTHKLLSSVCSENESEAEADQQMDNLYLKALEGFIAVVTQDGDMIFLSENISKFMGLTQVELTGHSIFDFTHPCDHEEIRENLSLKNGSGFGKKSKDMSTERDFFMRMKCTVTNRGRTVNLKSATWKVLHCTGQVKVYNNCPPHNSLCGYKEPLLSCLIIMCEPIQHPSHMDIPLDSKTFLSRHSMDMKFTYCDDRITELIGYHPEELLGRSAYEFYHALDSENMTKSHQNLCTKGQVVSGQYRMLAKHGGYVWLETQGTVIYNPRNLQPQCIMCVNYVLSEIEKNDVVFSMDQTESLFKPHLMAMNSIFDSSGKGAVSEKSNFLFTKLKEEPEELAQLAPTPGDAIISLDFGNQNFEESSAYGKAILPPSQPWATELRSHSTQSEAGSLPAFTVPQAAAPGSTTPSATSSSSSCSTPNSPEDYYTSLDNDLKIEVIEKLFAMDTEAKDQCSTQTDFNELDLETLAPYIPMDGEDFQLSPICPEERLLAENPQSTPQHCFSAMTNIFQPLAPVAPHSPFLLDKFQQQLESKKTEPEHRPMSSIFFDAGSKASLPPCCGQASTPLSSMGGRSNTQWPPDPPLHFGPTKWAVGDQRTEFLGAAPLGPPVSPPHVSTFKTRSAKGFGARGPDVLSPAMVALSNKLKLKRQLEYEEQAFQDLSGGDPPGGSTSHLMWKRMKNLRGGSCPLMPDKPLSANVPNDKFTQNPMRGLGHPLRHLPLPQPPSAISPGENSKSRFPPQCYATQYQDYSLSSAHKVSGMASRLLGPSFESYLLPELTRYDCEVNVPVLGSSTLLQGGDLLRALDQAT

B1: CEP131 (endogenous, HEK293T) (protein, UniProt Q9UPN4 1-1083)
chain: MKGTRAIGSVPERSPAGVDLSLTGLPPPVSRRPGSAATTKPIVRSVSVVTGSEQKRKVLEATGPGGSQAINNLRRSNSTTQVSQPRSGSPRPTEPTDFLMLFEGSPSGKKRPASLSTAPSEKGATWNVLDDQPRGFTLPSNARSSSALDSPAGPRRKECTVALAPNFTANNRSNKGAVGNCVTTMVHNRYTPSERAPPLKSSNQTAPSLNNIIKAATCEGSESSGFGKLPKNVSSATHSARNNTGGSTGLPRRKEVTEEEAERFIHQVNQATVTIQRWYRHQVQRRGAGAARLEHLLQAKREEQRQRSGEGTLLDLHQQKEAARRKAREEKARQARRAAIQELQQKRALRAQKASTAERGPPENPRETRVPGMRQPAQELSPTPGGTAHQALKANNTGGGLPAAGPGDRCLPTSDSSPEPQQPPEDRTQDVLAQDAAGDNLEMMAPSRGSAKSRGPLEELLHTLQLLEKEPDVLPRPRTHHRGRYAWASEVTTEDDASSLTADNLEKFGKLSAFPEPPEDGTLLSEAKLQSIMSFLDEMEKSGQDQLDSQQEGWVPEAGPGPLELGSEVSTSVMRLKLEVEEKKQAMLLLQRALAQQRDLTARRVKETEKALSRQLQRQREHYEATIQRHLAFIDQLIEDKKVLSEKCEAVVAELKQEDQRCTERVAQAQAQHELEIKKLKELMSATEKARREKWISEKTKKIKEVTVRGLEPEIQKLIARHKQEVRRLKSLHEAELLQSDERASQRCLRQAEELREQLEREKEALGQQERERARQRFQQHLEQEQWALQQQRQRLYSEVAEERERLGQQAARQRAELEELRQQLEESSSALTRALRAEFEKGREEQERRHQMELNTLKQQLELERQAWEAGRTRKEEAWLLNREQELREEIRKGRDKEIELVIHRLEADMALAKEESEKAAESRIKRLRDKYEAELSELEQSERKLQERCSELKGQLGEAEGENLRLQGLVRQKERALEDAQAVNEQLSSERSNLAQVIRQEFEDRLAASEEETRQAKAELATLQARQQLELEEVHRRVKTALARKEEAVSSLRTQHEAAVKRADHLEELLEQHRRPTPSTK

Assays:
[1] = biological target: Flag-tagged full length USP9X wild-type (UniProt Q93008); assay: affinity purification with mass spectrometry; Flag-tagged USP9X or HIF-2α transfected into HEK293T for 48 h; lysis buffer 50 mM Tris-HCl pH 7.4, 150 mM NaCl, 5 mM EDTA, 0.5% NP-40; Flag-M2 beads, eluted with FLAG peptide; in-gel digestion, Q Exactive Plus
Flag-tagged HIF-2α = Flag-tagged HIF-2α (UniProt Q99814); assay: as above

Row | Molecule | binding [1] | binding (Flag-tagged HIF-2α)
1 | HIF-2α (endogenous, HEK293T) (from UniProt Q99814 1-870) | binds | 
2 | USP9X (endogenous, HEK293T) (from UniProt Q93008 1-2554) (enzyme) |  | binds
3 | B1 | binds | 
